Reference: PubChem BioAssay (NCI)
This list holds what a sample rich in hits left over. Active and inactive are the calls of the source. No stated cut-off is given here; in the data, active means growth inhibition above about 70%; inactive means the rest.

Columns and labels:
[1] = NCI Yeast Anticancer Drug Screen. Data for the rad52 strain (AID 147);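 further: 0% = growth of vehicle-treated control cultures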; details: S. cerevisiae rad52 mutant growth inhibition, stronger effect = higher value
How it was run: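 The repair-mutant yeast strain was incubated with compounds, then growth was read and inhibition derived relative to vehicle.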

[2] = NCI Yeast Anticancer Drug Screen. Data for the mgt1 strain (AID 153); details: S. cerevisiae mgt1 mutant growth inhibition, stronger effect = higher value
How it was run: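 Vehicle-normalized growth inhibition is determined in mgt1 yeast, a strain selected for a defined alteration in DNA repair or cell cycle control.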

[3] = NCI Yeast Anticancer Drug Screen. Data for the CLN2oe strain (AID 163);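 further: 0% = growth of vehicle-only control cultures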; details: S. cerevisiae CLN2oe strain, stronger effect = higher value
How it was run: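 Compounds are applied to yeast harbouring a defined cell-cycle control change; reduced growth compared with vehicle-treated controls gives the value.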

Measured: growth inhibition

CCOC(=O)NC1CCc2cc(OC)c(OC)c(OC)c2-c2ccc(OC)c(=O)cc21 (stereo not given)
inactive: [1]; at 1.2 µM 0% | [1]; at 3.7 µM 3% | [1]; at 11.0 µM 8% | [1]; at 33.0 µM 4% | [1]; at 100.0 µM 4% | [2]; at 1.2 µM 0% | [2]; at 3.7 µM 0% | [2]; at 11.0 µM -1% | [2]; at 33.0 µM -2% | [2]; at 100.0 µM -3% | [3]; at 1.2 µM -4% | [3]; at 3.7 µM -6% | [3]; at 11.0 µM -10% | [3]; at 33.0 µM -8% | [3]; at 100.0 µM -9%
